Here are results for 60 sequences from paper PMC7862700.

Sequences of proteins named here, by UniProt entry; tags and fusion partners are left off. A change or cut given only in a name is not applied to a line headed by its entry.
UniProt Q9Y603: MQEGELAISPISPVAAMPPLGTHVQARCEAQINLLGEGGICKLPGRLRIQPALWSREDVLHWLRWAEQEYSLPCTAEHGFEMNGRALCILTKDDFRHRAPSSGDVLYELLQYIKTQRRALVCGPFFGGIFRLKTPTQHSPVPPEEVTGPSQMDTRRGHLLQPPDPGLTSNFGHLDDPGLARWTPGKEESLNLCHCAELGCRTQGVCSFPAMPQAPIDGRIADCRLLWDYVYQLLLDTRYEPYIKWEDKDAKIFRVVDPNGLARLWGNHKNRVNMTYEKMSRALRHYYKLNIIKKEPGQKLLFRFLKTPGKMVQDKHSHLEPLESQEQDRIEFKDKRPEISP
UniProt P41212: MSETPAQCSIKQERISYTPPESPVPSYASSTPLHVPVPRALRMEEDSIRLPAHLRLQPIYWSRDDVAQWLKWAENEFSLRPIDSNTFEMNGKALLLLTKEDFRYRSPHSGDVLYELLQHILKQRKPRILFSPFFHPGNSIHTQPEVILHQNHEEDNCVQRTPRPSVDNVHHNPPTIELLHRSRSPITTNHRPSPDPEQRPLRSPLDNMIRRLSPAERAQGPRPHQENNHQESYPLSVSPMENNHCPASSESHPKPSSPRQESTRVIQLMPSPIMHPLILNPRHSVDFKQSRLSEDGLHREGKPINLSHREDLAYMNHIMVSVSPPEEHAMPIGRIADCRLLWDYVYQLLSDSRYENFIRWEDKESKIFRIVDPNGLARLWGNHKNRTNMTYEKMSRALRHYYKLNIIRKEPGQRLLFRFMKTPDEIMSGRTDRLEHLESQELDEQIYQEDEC

Only a part is listed here, and it is no random draw. At the low end of the ranking the order means little.

Experiment in all cases: DAPPL (digital affinity profiling via proximity ligation, sequencing)
Common to all, as to settings: 10 mM Tris-HCl pH 7.5, 50 mM NaCl, 1 mM DTT, 4% glycerol, room temperature, 30 min; GST-TFs on glutathione beads, 16-mer random dsDNA library, 0.1% …; high values mean tight binding; double strand, one strand shown; scale: fold enrichment (6-mer frequency, TF over GST control)

In one assay the target is T1, ELF3 (UniProt P78545).
T1 sequence: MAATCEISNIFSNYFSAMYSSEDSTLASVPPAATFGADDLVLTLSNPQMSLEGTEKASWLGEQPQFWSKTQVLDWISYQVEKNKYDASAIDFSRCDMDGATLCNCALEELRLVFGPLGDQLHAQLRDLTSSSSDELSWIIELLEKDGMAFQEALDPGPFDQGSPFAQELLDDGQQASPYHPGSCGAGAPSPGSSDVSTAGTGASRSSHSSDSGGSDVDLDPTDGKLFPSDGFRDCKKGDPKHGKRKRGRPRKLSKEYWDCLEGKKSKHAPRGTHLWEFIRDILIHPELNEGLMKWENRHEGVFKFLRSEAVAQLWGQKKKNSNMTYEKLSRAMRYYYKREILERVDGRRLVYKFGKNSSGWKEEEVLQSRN

In the next assay the target is ETV7 (UniProt Q9Y603).
In a further assay the target is ETV6 (UniProt P41212).

In the case of GTGCAA, the results for the binding signal with ELF3, with ETV7 and with ETV6 were 1.07, 0.969 and 0.915, respectively.
For GTAAGG the same measures were 0.805, 0.752 and 0.763.
Taken in the same sequence, the figures for AGAGCC were 0.815, 0.674 and 0.729.
For CAGACA the same measures were 0.685, 0.854 and 0.833.
For GGGCAA, the results for the binding signal with ELF3, in the assay with ETV7 and with ETV6 were 0.889, 0.848 and 0.881, respectively.
Taken in the same sequence, the figures for CACAGA were 0.822, 0.902 and 0.852.
In the case of TGAGGC, the binding signal is 0.399 with ELF3, 0.552 in the assay with ETV7 and 0.454 in the assay with ETV6.
For GACAGG the same measures were 0.592, 0.674 and 0.58.
In the case of TCGTGC, the binding signal with ELF3 amounted to 0.743; with ETV7, 0.83; with ETV6, 0.843.
For GTGGGG the same measures were 0.674, 0.522 and 0.562.
Taken in the same sequence, the figures for AGGGGA were 0.646, 0.59 and 0.637.
Taken in the same sequence, the figures for GGACAA were 0.769, 0.933 and 0.858.
Turning to GACGTG, the binding signal with ELF3 is 0.314; with ETV7 it was 0.339; with ETV6, 0.341.
For AGTTCG the same measures were 0.73, 0.624 and 0.783.
For the sequence TAGAGG, the results for the binding signal with ELF3, in the assay with ETV7 and in the assay with ETV6 were 0.822, 0.846 and 0.823, respectively.
Taken in the same sequence, the figures for GTCATG were 0.835, 0.855 and 0.852.
For AGTCAG the same measures were 0.475, 0.536 and 0.523.
For GAGTCC the same measures were 0.354, 0.419 and 0.378.
On to GGCCAC, for which the binding signal in the assay with ELF3 was found to be 0.988; with ETV7, 0.92; with ETV6, 0.861.
In the case of GTACGT, the binding signal with ELF3 was determined as 0.755; with ETV7, 0.846; with ETV6, 0.911.
For CGCCAG, the binding signal worked out at 0.723 in the assay with ELF3, 0.637 in the assay with ETV7 and 0.688 in the assay with ETV6.
Taken in the same sequence, the figures for GTATAG were 0.995, 0.976 and 0.922.
For GAGGTA the same measures were 0.679, 0.769 and 0.648.
Turning to CGGCGG, the binding signal in the assay with ELF3 is 0.523; with ETV7, 0.595; with ETV6, 0.596.
On to TGGAGC, for which the binding signal with ELF3 was found to be 0.626; with ETV7, 0.578; with ETV6, 0.637.
Taken in the same sequence, the figures for GTGGCG were 0.834, 0.82 and 0.846.
Taken in the same sequence, the figures for CCGTTG were 0.698, 0.973 and 0.773.
Turning to CGGCGA, the binding signal amounted to 0.614 with ELF3, 0.775 in the assay with ETV7 and 0.755 with ETV6.
For the sequence CAGTTA, the binding signal in the assay with ELF3 is 0.897; with ETV7 it was 0.788; in the assay with ETV6 it was 0.797.
Turning to GTCGTA, the binding signal worked out at 0.563 with ELF3, 0.667 with ETV7 and 0.582 in the assay with ETV6.
GGCGAA: the binding signal in the assay with ELF3 was 0.667; with ETV7, 0.827; with ETV6 it was 0.721.
Taken in the same sequence, the figures for CGTGGC were 0.965, 0.971 and 0.946.
For GGCGGA the same measures were 0.377, 0.42 and 0.394.
For the sequence GAGAGC, the figures for the binding signal in the assay with ELF3, with ETV7 and with ETV6 were 0.397, 0.428 and 0.395, respectively.
On to CCGGGA, for which the binding signal with ELF3 came out at 0.479; with ETV7, 0.512; with ETV6, 0.593.
In the case of GGTGCA, the binding signal with ELF3 was found to be 0.874; in the assay with ETV7 it was 0.994; in the assay with ETV6, 0.792.
On to AGTGGA, for which the figures for the binding signal in the assay with ELF3, with ETV7 and with ETV6 were 0.827, 0.81 and 0.839, respectively.
Taken in the same sequence, the figures for CCAGTA were 0.651, 0.717 and 0.669.
TCAGGC: the binding signal with ELF3 stood at 0.683; in the assay with ETV7, 0.713; in the assay with ETV6, 0.688.
For GGCTGG the same measures were 0.501, 0.786 and 0.791.
For GAGCCG the same measures were 0.422, 0.454 and 0.387.
In the case of GACGTA, the values for the binding signal in the assay with ELF3, with ETV7 and with ETV6 were 0.693, 0.772 and 0.758, respectively.
On to GTGCCA, for which the figures for the binding signal with ELF3, with ETV7 and with ETV6 were 0.849, 0.75 and 0.822, respectively.
For GCAGCG the same measures were 0.642, 0.912 and 0.801.
Taken in the same sequence, the figures for GCGGTC were 0.768, 0.604 and 0.71.
For GGCCAG the same measures were 0.466, 0.493 and 0.475.
GAGTCA: the binding signal with ELF3 was 0.306; with ETV7, 0.32; in the assay with ETV6, 0.268.
Taken in the same sequence, the figures for GGATCG were 0.596, 0.607 and 0.597.
Taken in the same sequence, the figures for GCATAG were 0.788, 0.786 and 0.821.
Take ACGCAA: the binding signal with ELF3 was 0.874; with ETV7 it was 0.813; in the assay with ETV6 it was 0.911.
Taken in the same sequence, the figures for ACGTGG were 0.588, 0.587 and 0.604.
For GAGATA the same measures were 0.666, 0.674 and 0.656.
On to TGGGGA, for which the binding signal with ELF3 stood at 0.867; with ETV7, 0.757; in the assay with ETV6, 0.85.
Consider AAAGAG, for which the binding signal with ELF3 was 0.94; in the assay with ETV7, 0.946; with ETV6 it was 0.959.
As to CACGTG, the binding signal was 0.55 with ELF3, 0.667 in the assay with ETV7 and 0.611 in the assay with ETV6.
In the case of CCAAGG, the results for the binding signal in the assay with ELF3, in the assay with ETV7 and in the assay with ETV6 were 0.941, 0.83 and 0.895, respectively.
For GCAACG the same measures were 0.931, 0.9 and 0.94.
As to GGCACG, the binding signal in the assay with ELF3 stood at 0.919; with ETV7 it was 0.858; in the assay with ETV6, 0.831.
For TGACGT, the figures for the binding signal with ELF3, with ETV7 and in the assay with ETV6 were 0.714, 0.809 and 0.911, respectively.
Taken in the same sequence, the figures for TCAGAG were 0.729, 0.754 and 0.703.
